Laboratory results from article PMC7445300.
These are yes or no findings as the source states them, for the method shown. Binding seen in cells or lysates may run through a third protein. Some binding calls cover weakened binding; strength is not graded here.

Protein sequences, listed by entry. Tags and fused reporters are not part of them.
UniProt P26358: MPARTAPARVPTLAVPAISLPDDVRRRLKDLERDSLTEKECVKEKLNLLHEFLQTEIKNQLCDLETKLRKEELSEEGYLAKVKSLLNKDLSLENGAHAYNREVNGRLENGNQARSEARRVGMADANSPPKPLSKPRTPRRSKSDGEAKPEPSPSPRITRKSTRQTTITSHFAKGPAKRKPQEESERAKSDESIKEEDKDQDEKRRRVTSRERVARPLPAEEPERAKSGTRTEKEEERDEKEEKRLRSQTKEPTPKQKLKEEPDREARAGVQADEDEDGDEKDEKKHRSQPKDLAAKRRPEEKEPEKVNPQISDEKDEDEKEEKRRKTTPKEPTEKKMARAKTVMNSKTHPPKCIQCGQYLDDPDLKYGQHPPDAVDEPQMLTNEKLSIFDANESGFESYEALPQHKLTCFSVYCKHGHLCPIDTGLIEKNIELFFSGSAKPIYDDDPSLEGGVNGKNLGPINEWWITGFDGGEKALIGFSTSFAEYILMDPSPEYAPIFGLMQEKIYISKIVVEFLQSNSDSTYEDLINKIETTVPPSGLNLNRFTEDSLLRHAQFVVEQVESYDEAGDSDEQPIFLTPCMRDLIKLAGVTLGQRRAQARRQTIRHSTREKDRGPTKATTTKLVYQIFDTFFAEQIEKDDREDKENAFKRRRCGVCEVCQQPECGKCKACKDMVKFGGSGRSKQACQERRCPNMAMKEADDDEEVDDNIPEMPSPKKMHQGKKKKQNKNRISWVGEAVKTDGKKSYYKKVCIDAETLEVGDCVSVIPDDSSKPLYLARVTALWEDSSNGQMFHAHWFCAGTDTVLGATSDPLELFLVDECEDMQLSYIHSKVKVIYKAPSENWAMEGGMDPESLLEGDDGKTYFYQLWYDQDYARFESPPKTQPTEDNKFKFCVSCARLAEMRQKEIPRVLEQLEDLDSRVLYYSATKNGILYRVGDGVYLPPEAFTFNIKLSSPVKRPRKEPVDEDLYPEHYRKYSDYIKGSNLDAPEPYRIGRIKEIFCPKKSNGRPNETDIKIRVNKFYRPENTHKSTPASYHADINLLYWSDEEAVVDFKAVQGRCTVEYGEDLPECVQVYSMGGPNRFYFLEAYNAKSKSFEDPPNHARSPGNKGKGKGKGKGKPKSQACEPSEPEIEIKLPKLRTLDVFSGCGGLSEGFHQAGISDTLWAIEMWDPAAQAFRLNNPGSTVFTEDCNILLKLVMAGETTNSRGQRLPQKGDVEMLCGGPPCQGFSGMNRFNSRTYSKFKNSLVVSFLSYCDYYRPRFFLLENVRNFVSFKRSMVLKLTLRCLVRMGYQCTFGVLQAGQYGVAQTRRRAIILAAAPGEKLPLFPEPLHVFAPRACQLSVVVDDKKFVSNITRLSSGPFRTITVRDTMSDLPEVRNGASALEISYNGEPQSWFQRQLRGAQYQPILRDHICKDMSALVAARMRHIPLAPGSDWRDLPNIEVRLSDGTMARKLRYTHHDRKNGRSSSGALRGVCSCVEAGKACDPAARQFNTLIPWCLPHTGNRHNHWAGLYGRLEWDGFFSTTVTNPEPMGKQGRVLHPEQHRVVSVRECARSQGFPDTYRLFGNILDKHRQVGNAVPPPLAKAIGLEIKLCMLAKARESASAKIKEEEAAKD
UniProt Q93009: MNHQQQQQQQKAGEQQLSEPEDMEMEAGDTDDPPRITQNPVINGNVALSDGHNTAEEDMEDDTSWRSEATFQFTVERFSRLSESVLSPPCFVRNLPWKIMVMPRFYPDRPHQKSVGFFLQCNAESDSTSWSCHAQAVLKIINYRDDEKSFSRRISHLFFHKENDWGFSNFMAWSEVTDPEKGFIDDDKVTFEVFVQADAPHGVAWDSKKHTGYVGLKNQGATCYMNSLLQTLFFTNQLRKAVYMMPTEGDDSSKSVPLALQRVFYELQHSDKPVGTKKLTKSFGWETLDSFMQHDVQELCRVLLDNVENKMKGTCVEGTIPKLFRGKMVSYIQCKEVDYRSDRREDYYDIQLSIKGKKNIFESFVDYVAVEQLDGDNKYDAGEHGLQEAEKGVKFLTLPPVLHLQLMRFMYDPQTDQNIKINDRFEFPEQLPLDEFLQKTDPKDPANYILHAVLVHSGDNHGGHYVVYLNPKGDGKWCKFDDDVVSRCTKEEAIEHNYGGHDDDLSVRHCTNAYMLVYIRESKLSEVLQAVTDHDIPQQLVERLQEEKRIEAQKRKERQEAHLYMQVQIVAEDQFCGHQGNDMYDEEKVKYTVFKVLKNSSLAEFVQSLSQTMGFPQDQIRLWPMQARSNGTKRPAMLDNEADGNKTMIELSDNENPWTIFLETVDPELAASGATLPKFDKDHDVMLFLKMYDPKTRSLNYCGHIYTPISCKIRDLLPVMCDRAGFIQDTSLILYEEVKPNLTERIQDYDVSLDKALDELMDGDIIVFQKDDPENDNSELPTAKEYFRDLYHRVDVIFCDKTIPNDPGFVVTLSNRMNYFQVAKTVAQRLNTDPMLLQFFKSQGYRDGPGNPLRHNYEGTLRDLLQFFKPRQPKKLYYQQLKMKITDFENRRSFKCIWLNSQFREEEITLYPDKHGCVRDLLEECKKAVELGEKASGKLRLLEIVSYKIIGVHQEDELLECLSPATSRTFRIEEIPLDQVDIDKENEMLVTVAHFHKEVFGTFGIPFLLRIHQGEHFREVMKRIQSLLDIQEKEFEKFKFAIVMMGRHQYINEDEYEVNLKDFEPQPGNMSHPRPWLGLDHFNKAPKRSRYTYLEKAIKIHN

Legend:
UHRF1 = target: T1, UHRF1 (UniProt Q96T88); assay: co-IP; plasmids co-transfected into HEK293T cells for 48 h; lysis in 25 mM Tris-HCl pH 8.0, 150 mM NaCl, 1% NP-40, 2 mM EDTA, 1 mM DTT; anti-FLAG M2-affinity beads 3 h at 4 °C; WB
T1 sequence: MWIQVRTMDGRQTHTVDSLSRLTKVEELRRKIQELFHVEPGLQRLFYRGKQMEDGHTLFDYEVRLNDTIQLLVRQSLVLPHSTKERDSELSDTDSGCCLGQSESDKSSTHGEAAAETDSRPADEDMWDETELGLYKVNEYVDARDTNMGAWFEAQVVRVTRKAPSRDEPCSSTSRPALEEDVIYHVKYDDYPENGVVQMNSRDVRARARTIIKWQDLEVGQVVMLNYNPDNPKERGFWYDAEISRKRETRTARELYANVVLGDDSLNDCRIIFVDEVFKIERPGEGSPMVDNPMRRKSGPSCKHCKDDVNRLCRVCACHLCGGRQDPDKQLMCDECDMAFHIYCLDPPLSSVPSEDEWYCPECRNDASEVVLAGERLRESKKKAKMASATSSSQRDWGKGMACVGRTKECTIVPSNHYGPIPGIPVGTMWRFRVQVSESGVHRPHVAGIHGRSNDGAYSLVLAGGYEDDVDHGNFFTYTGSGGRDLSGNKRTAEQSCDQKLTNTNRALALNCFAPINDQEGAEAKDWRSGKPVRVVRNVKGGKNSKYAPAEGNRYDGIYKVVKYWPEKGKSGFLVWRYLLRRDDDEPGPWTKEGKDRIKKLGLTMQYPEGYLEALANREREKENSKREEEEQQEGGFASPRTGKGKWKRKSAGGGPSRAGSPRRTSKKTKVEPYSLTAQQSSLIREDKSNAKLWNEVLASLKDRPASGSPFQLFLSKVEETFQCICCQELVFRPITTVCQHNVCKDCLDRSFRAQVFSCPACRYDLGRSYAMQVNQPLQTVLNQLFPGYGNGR

DNMT1 = DNMT1 (UniProt P26358); assay: as above

Question: What does the source list for “USP7 (ubiquitin specific protease 7) (from UniProt Q93009 1-1102) (enzyme)”?
Answer: binding (UHRF1): binds weakly; binding (DNMT1): binds
